Positions count from the first letter of the chain named. These are yes or no findings as the source states them, for the method shown. Some binding calls cover weakened binding; strength is not graded here. Values belong to the binder of their own block, whether it stands above or below them.
Experiments:
mouse Ang2 (mAng2) = molecular target: T1, mouse Ang2 (mAng2) (mouse, UniProt O35608 19-496, limits assumed); assay: ELISA: recombinant mAng2 coated on the plate, serially diluted antibody, anti-human IgG (Fab)-HRP, TMB, absorbance at 450 nm
T1 construct: Coated on the ELISA plate; also called recombinant mAng2
T1 sequence (looked up): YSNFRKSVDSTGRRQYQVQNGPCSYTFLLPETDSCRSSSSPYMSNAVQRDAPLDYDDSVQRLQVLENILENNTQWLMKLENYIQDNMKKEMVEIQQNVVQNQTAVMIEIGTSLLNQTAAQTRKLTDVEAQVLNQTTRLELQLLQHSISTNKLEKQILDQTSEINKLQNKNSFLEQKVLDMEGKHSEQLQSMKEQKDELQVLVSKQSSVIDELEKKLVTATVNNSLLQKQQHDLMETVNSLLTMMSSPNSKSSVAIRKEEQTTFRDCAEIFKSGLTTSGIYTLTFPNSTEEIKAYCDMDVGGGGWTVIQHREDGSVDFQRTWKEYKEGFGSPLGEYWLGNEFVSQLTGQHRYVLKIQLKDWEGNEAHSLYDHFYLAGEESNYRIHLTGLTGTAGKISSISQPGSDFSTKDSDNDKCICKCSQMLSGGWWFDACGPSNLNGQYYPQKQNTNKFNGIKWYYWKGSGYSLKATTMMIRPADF

[1] = molecular target: T2, Human Angiopoietin-2 full-length (hAng2) (human, UniProt O15123 19-496); assay: BLI (Octet)
T2 construct: The cell assays used full-length hAng2 from R&D Systems; also called human Ang2; A2
T2 sequence: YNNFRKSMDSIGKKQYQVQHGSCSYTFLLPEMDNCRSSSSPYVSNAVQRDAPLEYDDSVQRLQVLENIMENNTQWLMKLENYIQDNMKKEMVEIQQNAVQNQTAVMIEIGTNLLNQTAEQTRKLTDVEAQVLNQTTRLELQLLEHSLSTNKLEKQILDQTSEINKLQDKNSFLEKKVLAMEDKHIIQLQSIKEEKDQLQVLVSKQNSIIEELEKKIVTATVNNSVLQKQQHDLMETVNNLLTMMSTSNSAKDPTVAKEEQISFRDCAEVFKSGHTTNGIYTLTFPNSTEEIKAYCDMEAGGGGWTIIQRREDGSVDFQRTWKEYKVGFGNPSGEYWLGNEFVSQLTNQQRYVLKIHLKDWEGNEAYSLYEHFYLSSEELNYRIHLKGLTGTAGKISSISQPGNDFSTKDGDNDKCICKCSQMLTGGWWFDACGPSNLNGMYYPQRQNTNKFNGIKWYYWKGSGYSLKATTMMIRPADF

binding (mouse Ang2 (mAng2)): binds
B1: humanized anti-Ang2 antibody 4B9H11 (antibody, V domains shown)
VH: QVQLVESGGGLVKPGGSLRLSCAASGFTFSDYYMYWIRQAPGKGLEWVSTISVGGSFTYYPDSVKGRFTISRDNAKNSLYLQMNSLRAEDTAVYYCARDWGLRPWFVYWGQGTLVTVSS
VL: DIQMTQSPSSLSASVGDRVTITCKASQDVSTAVAWYQQKPGKAPKLLIYWASTRHTGVPSRFSGSGSGTDFTLTISSLQPEDFATYYCQQHYSTPPTFGQGTKVEIK
notes: Full-length human IgG1

binding [1]: binds
B2: 4B9H11G4 (human IgG4 class antibody of 4B9H11) (antibody, V domains shown)
VH: B1 VH
VL: B1 VL
notes: The heavy chain constant region was replaced by an IgG4 class constant region; The sentence prints '4B9 heavy chain gene' where 4B9H11 is meant; also called 4B9H11-IgG4

binding (mouse Ang2 (mAng2)): binds
B3: humanized anti-Ang2 antibody 2C8H11 (antibody, V domains shown)
VH: QVQLVQSGAEVKKPGASVKVSCKASGYTFTSYWMHWVRQAPGQGLEWMGMIDPSDSETRLNQKFKDRVTMTRDTSTSTVYMELSSLRSEDTAVYYCARRFYYGSDWYFDVWGQGTLVTVSS
VL: B1 VL with M4L, S10F, S30G, D70E, H91Y, Y92S, T94Y, P96L
notes: Full-length human IgG1

From patent publication US20210079083A1 (INSTITUTE FOR BASIC SCIENCE, published 2021)
